Results published in the M2OR odorant receptor database.
The list shows a part of the results, in another mix than the full data. Calls are pooled over several reports, among them a noisy single-well screen.

Sequences of proteins named here, by UniProt entry; tags and fusion partners are left off. A change or cut given only in a name is not applied to a line headed by its entry.
UniProt Q8NHA4: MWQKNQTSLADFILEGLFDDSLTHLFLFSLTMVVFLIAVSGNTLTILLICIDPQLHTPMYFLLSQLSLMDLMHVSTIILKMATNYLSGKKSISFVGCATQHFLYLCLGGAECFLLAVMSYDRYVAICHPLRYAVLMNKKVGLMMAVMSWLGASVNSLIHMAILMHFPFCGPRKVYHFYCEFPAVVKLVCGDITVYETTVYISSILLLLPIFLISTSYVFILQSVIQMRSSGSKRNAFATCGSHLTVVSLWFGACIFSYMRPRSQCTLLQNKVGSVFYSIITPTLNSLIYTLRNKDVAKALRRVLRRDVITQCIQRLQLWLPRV
UniProt Q8NGZ0: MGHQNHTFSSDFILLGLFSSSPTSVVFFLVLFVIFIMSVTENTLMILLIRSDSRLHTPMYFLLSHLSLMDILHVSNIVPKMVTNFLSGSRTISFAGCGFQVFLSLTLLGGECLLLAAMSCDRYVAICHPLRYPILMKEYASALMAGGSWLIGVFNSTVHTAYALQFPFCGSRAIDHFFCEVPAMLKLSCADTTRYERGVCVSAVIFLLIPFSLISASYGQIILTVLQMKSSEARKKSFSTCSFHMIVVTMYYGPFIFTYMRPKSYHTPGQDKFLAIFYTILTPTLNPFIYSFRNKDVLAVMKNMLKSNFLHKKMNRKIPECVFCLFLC
UniProt Q8NG84: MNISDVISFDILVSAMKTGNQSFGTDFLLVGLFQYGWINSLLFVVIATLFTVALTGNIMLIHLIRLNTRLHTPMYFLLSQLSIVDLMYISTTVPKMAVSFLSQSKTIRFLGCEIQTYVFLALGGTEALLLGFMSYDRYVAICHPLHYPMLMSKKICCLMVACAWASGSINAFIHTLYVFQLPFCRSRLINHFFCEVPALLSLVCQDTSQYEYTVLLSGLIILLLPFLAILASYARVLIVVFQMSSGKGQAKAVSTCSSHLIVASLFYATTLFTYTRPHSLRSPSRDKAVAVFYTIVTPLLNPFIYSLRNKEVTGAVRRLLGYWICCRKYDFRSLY

Key:
Settings in all cases: stereoisomer not certain
OR2AE1 (Homo sapiens) = OR2AE1 (Homo sapiens) (UniProt Q8NHA4)
In short: (§1)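 Each entry records the cell line, G-protein, co-transfected protein and tags used. Methods varied with the source, often transient luciferase assays in mammalian cell lines. A receptor–molecule pair is called responsive (active) if the original authors judged its signal statistically different from baseline and non-responsive (inactive) otherwise.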

OR2AG1 (Homo sapiens) = target: T1, OR2AG1 (Homo sapiens) (UniProt Q9H205)
T1 sequence (whole entry): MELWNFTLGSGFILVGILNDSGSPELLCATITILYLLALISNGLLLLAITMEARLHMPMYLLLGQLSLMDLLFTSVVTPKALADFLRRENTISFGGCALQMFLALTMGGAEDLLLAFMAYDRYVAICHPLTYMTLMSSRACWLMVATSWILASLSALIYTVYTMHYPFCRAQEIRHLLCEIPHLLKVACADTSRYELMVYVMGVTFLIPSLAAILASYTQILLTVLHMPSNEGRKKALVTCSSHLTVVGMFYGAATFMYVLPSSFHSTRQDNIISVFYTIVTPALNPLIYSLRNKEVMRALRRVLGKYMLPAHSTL
In short: as §1

OR2AG2 (Homo sapiens) = target: T2, OR2AG2 (Homo sapiens) (UniProt A6NM03)
T2 sequence (whole entry): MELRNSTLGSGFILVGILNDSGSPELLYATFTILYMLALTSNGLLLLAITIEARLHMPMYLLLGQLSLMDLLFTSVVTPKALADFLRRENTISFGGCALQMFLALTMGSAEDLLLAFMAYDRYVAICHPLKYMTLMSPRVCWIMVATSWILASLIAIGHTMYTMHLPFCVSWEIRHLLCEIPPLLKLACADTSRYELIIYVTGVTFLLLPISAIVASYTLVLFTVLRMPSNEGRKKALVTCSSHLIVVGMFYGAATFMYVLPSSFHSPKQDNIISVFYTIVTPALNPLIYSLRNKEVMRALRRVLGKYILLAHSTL
In short: as §1

OR2AJ1 (Homo sapiens) = OR2AJ1 (Homo sapiens) (UniProt Q8NGZ0)
In short: as §1

OR2AK2 (Homo sapiens) = OR2AK2 (Homo sapiens) (UniProt Q8NG84)
In short: as §1

OR2AP1 (Homo sapiens) = target: T3, OR2AP1 (Homo sapiens) (UniProt Q8NGE2)
T3 sequence (whole entry): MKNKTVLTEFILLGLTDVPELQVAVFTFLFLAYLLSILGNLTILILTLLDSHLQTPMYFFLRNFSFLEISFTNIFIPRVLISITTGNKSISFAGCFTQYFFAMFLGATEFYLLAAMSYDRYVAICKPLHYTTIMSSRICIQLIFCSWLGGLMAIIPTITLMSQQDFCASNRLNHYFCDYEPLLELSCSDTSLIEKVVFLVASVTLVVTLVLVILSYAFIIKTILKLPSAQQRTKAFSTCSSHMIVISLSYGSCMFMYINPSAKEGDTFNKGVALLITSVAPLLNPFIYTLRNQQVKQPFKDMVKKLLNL
In short: as §1

OR2AT4 (Homo sapiens) = target: T4, OR2AT4 (Homo sapiens) (UniProt A6NND4)
T4 sequence (whole entry): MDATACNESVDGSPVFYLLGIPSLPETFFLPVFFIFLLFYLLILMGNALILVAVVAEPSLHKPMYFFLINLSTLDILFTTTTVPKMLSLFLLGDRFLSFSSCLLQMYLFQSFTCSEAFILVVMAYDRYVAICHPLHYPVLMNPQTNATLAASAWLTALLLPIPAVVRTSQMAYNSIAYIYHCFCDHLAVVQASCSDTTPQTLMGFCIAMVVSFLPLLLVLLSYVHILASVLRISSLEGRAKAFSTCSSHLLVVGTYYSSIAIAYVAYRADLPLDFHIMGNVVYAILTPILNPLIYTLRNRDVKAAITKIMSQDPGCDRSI
In short: as §1

OR2B11 (Homo sapiens) = target: T5, OR2B11 (Homo sapiens) (UniProt Q5JQS5)
T5 sequence (whole entry): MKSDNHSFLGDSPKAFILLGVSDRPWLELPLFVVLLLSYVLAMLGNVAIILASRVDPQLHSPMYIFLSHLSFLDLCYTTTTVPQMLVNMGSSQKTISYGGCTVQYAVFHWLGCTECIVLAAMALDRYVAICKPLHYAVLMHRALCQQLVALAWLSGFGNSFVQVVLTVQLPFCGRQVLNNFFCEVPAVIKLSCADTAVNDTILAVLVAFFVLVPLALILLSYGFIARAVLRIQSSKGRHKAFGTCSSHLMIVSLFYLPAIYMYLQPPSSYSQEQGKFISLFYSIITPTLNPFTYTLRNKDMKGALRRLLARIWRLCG
In short: as §1

OR2B2 (Homo sapiens) = target: T6, OR2B2 (Homo sapiens) (UniProt Q9GZK3)
T6 sequence (whole entry): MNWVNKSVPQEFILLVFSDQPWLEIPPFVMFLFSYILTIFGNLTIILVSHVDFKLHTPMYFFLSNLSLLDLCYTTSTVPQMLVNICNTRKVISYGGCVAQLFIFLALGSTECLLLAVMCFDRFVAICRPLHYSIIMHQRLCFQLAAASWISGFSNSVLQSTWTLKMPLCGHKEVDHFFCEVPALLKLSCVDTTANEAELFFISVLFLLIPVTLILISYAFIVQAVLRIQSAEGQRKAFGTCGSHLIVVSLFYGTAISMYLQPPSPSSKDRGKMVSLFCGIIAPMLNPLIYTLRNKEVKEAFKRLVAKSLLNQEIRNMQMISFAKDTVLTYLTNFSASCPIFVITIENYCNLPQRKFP
In short: as §1

OR2B3 (Homo sapiens) = target: T7, OR2B3 (Homo sapiens) (UniProt O76000)
T7 sequence (whole entry): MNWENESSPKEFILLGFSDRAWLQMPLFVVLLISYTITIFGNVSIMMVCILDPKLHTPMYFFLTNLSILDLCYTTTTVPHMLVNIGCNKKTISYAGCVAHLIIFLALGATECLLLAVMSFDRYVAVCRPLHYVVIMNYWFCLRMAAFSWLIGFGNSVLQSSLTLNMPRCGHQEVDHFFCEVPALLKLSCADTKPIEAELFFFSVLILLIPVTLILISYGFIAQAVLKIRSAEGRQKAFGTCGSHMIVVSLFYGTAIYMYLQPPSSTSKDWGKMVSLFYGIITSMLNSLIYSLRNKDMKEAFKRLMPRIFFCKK
In short: as §1

Row | Compound | odorant receptor agonist call (OR2AE1 (Homo sapiens)) | odorant receptor agonist call (OR2AG1 (Homo sapiens)) | odorant receptor agonist call (OR2AG2 (Homo sapiens)) | odorant receptor agonist call (OR2AJ1 (Homo sapiens)) | odorant receptor agonist call (OR2AK2 (Homo sapiens)) | odorant receptor agonist call (OR2AP1 (Homo sapiens)) | odorant receptor agonist call (OR2AT4 (Homo sapiens)) | odorant receptor agonist call (OR2B11 (Homo sapiens)) | odorant receptor agonist call (OR2B2 (Homo sapiens)) | odorant receptor agonist call (OR2B3 (Homo sapiens))
1 | CC12C=CCC1C1CCC3CC(=O)CCC3(C)C1CC2 (stereo unspecified) | inactive | inactive | inactive | inactive | inactive | inactive | inactive | inactive | inactive | inactive
2 | CC12C=CCC1C1CCC3=CC(=O)CCC3(C)C1CC2 (stereo unspecified) | – | inactive | inactive | – | – | inactive | inactive | inactive | inactive | inactive
3 | CC(=O)OCC=C(C)CCC=C(C)C | – | inactive | inactive | – | – | inactive | inactive | inactive | inactive | inactive
4 | CCCCCOC(C)=O | – | inactive | inactive | – | – | inactive | inactive | inactive | inactive | active
5 | CC(C)CCC(=O)O | – | inactive | inactive | – | – | inactive | inactive | inactive | inactive | inactive
6 | CC(=O)OC(C)(C)C1CC=C(C)CC1 (stereo unspecified) | – | inactive | inactive | – | – | inactive | inactive | inactive | inactive | inactive
7 | CCCCCC(=O)O | – | inactive | inactive | – | – | inactive | inactive | inactive | inactive | inactive
8 | C=CCSCC=C | – | inactive | inactive | – | – | inactive | inactive | inactive | inactive | inactive
9 | CC(C)C(=O)O | – | inactive | inactive | – | – | inactive | inactive | inactive | inactive | inactive
10 | CC(=O)OC1CC2CCC1(C)C2(C)C (stereo unspecified) | – | inactive | inactive | – | – | inactive | inactive | inactive | inactive | inactive
11 | CC(=O)C(C)=O | – | inactive | inactive | – | – | inactive | inactive | inactive | inactive | inactive
12 | COC(=O)c1ccccc1O | – | inactive | inactive | – | – | inactive | inactive | inactive | inactive | inactive
13 | CC1CCC(C(C)C)C(O)C1 (stereo unspecified) | – | inactive | active | – | – | inactive | inactive | inactive | active | inactive
14 | O=C1CCCCCCCCCCCCCCO1 | – | inactive | inactive | – | – | inactive | inactive | inactive | inactive | inactive
15 | c1cnccn1 | – | inactive | inactive | – | – | inactive | inactive | inactive | inactive | inactive
16 | CCCCCCCOC(C)=O | – | inactive | inactive | – | – | inactive | inactive | inactive | inactive | inactive
17 | CCCCCCCCCC=O | – | inactive | inactive | – | – | inactive | inactive | inactive | inactive | inactive
18 | CCCC(=O)O | – | inactive | inactive | – | – | inactive | inactive | inactive | inactive | inactive
19 | CCCCCCCCOC(C)=O | – | inactive | inactive | – | – | inactive | inactive | inactive | inactive | inactive
20 | CC(=O)c1ccccc1 | – | inactive | inactive | – | – | inactive | inactive | inactive | inactive | inactive
21 | C=CCc1ccc(OC(C)=O)c(OC)c1 | – | inactive | inactive | – | – | inactive | inactive | inactive | inactive | –
22 | CCCCCCC=O | – | inactive | – | – | – | – | – | – | – | –
23 | CCCCO | – | inactive | inactive | – | – | inactive | inactive | inactive | inactive | inactive
24 | CC(C)C=O | – | inactive | inactive | – | – | inactive | inactive | inactive | inactive | inactive
25 | CC1=CCC(C(C)(C)O)CC1 (stereo unspecified) | – | inactive | inactive | – | – | inactive | inactive | inactive | inactive | inactive
